Data set [1] in a line: Minimum film forming temperature (MFFT) of latex coating formulation. The note with it: UCAR 625.
Assay in data set [2]: as above
The note with it: UCAR 379G.

From patent US9156809B2, “Carboxy ester ketals, methods of manufacture, and uses thereof” (SEGETIS, INC., priority 2012, dated 2015) come the findings set out here.

`CCOC(=O)CCC1(C)OCC(C)O1` (centres unmarked) [EtLPK, ethyl levulinate propylene glycol ketal]: the MFFT in data set [1] (coalescent loading 1% (wt. %)) came to 4.3 °C; in data set [1] (coalescent loading 2% (wt. %)) it was 0.9 °C; in data set [2] (coalescent loading 1% (wt. %)) it was 4.4 °C; in data set [2] (coalescent loading 2% (wt. %)), 1.6 °C.
Turning to `CCCCC(CC)COC(=O)CCC1(C)OCC(C)O1` (centres unmarked) [2EH-LPK, 2-ethylhexyl levulinate propylene glycol ketal], the MFFT in data set [1] (coalescent loading 1% (wt. %)) was 4.3 °C; in data set [1] (coalescent loading 2% (wt. %)) it was 1.3 °C; in data set [2] (coalescent loading 1% (wt. %)) it was 5.6 °C; in data set [2] (coalescent loading 2% (wt. %)), 2.2 °C.
Regarding “2,2,4-trimethyl-1,3-pentanediol monoisobutyrate [TPM]”, the values for the MFFT in data set [2] (coalescent loading 1% (wt. %)) and in data set [2] (coalescent loading 2% (wt. %)) were 6.0 °C and 2.8 °C, respectively.
With `CC(C)OC(=O)CCC1(C)OCC(C)O1` (centres unmarked) [iPrLPK, isopropyl levulinate propylene glycol ketal], the MFFT in data set [1] (coalescent loading 1% (wt. %)) was 4.1 °C; in data set [1] (coalescent loading 2% (wt. %)), 0.9 °C; in data set [2] (coalescent loading 1% (wt. %)), 5.1 °C; in data set [2] (coalescent loading 2% (wt. %)), 2.2 °C.
